The full ranking holds about 33,000 sequences; the median of “E-score (-0.5 to 0.5)” is about -0.0059, and the highest 2% start at about 0.26. The list shows a part of the results.
The sequences below were run against T1, Cin5 (UniProt P40917) (assay: PBM E-score (8-mer binding enrichment) (E-score (-0.5 to 0.5)); higher = stronger / more preferred TF binding). Details: protein concentration: 100 nM; construct: GST-full length.
T1 sequence: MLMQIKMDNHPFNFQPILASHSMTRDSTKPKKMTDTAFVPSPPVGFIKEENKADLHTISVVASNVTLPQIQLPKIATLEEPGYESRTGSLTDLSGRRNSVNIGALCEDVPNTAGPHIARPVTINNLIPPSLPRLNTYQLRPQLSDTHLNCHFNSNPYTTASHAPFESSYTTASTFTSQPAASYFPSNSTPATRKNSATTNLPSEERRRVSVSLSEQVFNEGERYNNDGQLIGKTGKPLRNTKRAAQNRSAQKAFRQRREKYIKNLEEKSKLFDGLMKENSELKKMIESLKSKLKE
Outline: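 Universal all-10-mer Agilent arrays, fresh or stripped once, were converted to double-stranded form by primer extension. GST-tagged yeast transcription factors from PURExpress in vitro transcription/translation, full-length or DNA-binding domain only, were applied at about 100-200 nM and detected with fluorescent anti-GST. After masliner normalisation, the Universal PBM Analysis Suite scored each ungapped eight-base word together with its reverse complement by E-score.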

Sequence | PBM E-score
CGACTGCC | -0.191
ACAGCTCG | -0.0204
GACCTTCA | -0.124
AGCAGCCG | 0.0345
AGAATGCG | 0.0465
TCAGCCAA | 0.104
ATCTCGCA | 0.00313
AAGACTAA | 0.0967
TGATGGAA | 0.0629
ATGTCACA | 0.213
GTTTAAAA | 0.0736
AATGTGAG | 0.0644
CCTTTGAC | -0.218
CTCTTGGC | -0.112
CGCGTCAC | -0.109
GCCATTGA | 0.184
ATTTCAGG | 0.0318
CCAACTTA | 0.0207
GAAGCTGC | -0.0618
AAGTGACC | -0.0423
ATGTTGGC | 0.059
CGAAGGCA | -0.181

Sequence | PBM E-score
AGGCATTG | -0.051
GGACACTA | -0.0121
AGTATCGA | 0.253
ACACCCAA | 0.0796
CGACAGCG | -0.104
TACGAATA | 0.2
ACAGGACA | 0.0466
CGCACTGA | -0.0636
ACCCGCCG | 0.0697
GCTAAGGA | -0.146
CTAGCGTA | -0.166
AGACTAGC | -0.273
AAGTTGCT | -0.00447
ACCTGTTA | -0.145
CTCACCGA | -0.0769
GTACCTAC | -0.182
ACTTTTGC | 0.0876
GGTGTTCA | -0.0704
CGAGCTGA | 0.175
AGCAGCAT | -0.072
AGGTGACC | -0.264
TCCTGGAA | -0.115

Sequence | PBM E-score
ACTACTCC | 0.0696
GATGTATA | 0.0788
CCCACACC | 0.0203
ACCGACGC | -0.144
AACTTCTG | -0.089
CCGCGTAC | -0.0547
CCAAGGGA | -0.177
CACGGCGA | 0.00899
CCTTCACA | -0.065
ACACCAAG | -0.0243
CTGACGGA | -0.0319
AATCGAGC | 0.138
GACTGCCC | -0.188
GATGGAGC | -0.162
AAGGCTAA | 0.0241
GAAAGCAC | 0.0242
ATGAATCG | 0.00784
ACACTTAG | 0.0487
GCAGTGGA | 0.00045
GATTACGA | 0.434
AGCGGGAC | -0.11
CCTGCAGA | -0.0299

Fetched one by one from above, 3 records:
Sequence | PBM E-score
GATGTATA | 0.0788
ACCGACGC | -0.144
ACACTTAG | 0.0487

Additional entries.

Sequence | PBM E-score
GCGTCGTA | 0.0768
AACCGCCC | -0.178
CACAATGC | 0.107
GTTTGTAA | 0.0206
CCCAGATC | -0.26
ACATTCTG | -0.0435
CAAGAGTC | -0.207
GCATAACC | -0.124
ATACCCGG | -0.133
CACTGGGG | -0.176
CAGACAAA | 0.0571
ATGGAAAC | 0.101
CCTAACTA | -0.0602
CGCTCCCA | -0.204
CTACACAA | 0.115
GGCACCCA | -0.171
CCTCCATA | -0.147
ATAGCCGG | -0.0696
AAAGCGTT | 0.0053
CCCGTAGG | -0.149

— the supplement of paper PMC3334620
